# According to publication PMC4341027:
# By UniProt entry, the sequences of proteins in these tests, tags left out.
# UniProt P42866: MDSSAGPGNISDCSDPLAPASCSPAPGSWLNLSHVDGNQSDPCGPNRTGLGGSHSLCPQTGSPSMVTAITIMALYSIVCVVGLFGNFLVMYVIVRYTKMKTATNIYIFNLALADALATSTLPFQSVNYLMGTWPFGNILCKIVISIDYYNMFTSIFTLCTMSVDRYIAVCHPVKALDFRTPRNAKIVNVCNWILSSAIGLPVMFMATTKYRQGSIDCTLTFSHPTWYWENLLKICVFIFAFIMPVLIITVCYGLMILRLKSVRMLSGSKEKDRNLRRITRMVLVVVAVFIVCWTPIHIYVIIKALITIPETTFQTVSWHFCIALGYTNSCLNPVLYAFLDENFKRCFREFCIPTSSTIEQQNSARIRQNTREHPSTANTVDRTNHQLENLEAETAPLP
# UniProt P32300: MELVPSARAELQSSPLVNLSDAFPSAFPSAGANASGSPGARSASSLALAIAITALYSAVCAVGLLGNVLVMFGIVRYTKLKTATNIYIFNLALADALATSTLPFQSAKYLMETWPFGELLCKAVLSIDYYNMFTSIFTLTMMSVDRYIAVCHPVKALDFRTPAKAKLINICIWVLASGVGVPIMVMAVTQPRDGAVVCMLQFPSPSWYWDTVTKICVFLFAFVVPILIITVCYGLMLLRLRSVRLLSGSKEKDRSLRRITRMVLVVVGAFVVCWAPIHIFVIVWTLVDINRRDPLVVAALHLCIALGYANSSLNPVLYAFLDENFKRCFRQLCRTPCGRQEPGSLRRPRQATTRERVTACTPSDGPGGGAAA
# No constants are given. Whether binding was seen depends on the method and setting. In cells and extracts the contact can be indirect. Some entries that bind do so weakly or less than the wild type.
# Target: mu opioid receptor fused at its C-terminus to the red fluorescent protein mcherry (MOR-mcherry) (mouse) (UniProt P42866)
# Test: co-IP; membrane preparations (500 ug) from hippocampus of double knock-in mice solubilized in Tris-HCl 50 mM pH 7.4, 100 mM NaCl, 10 % CHAPS, protease inhibitors, 1 h at 4 °C; immunoprecipitated with 1 ug rabbit polyclonal anti-mcherry antibodies, G protein Sepharose; Western blot with rabbit polyclonal anti-eGFP antibodies
substance,measurement,value
delta opioid receptor fused at its C terminus to the enhanced green fluorescent protein (DOR-eGFP) (from UniProt P32300 1-372),binding,binds
